{"source": "PubChem BioAssay AID1259425 (University of Nebraska Medical Center, 2018)", "assay": "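Find knockdowns that reproduce the gene expression pattern seen when KSR1 is lost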 (primary screen)", "cell system": "HCT116 human colon cancer cells", "reagents": "siRNA pool against human genes, 50 nM siRNA", "detection": "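mRNA of six signature genes measured together by branched-DNA assay after 50 nM siRNA pool, blank removed, divided by geometric mean of two housekeeping genes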", "reading the numbers": "BNIP3L mRNA: higher = more BNIP3L transcript after knockdown; NDRG1 mRNA: higher = more NDRG1 transcript after knockdown", "note": "Here is one part, drawn at random, of about 14,000 reagents tested. Not all columns of the deposit are shown. The record does not give: the time to read-out."}
{"gene": "SUCLG1 (succinate-CoA ligase GDP/ADP-forming subunit alpha)", "BNIP3L mRNA, set 1": 0.212, "NDRG1 mRNA, set 1": 0.237}
{"gene": "SARS1 (seryl-tRNA synthetase 1)", "BNIP3L mRNA, set 1": 0.0563, "NDRG1 mRNA, set 1": 0.175}
{"gene": "B3GAT3 (beta-1,3-glucuronyltransferase 3)", "BNIP3L mRNA, set 1": 0.0472, "NDRG1 mRNA, set 1": 0.22}
{"gene": "SLC4A2", "BNIP3L mRNA, set 1": 0.186, "NDRG1 mRNA, set 1": 0.229}
{"gene": "CCNB3 (cyclin B3)", "BNIP3L mRNA, set 1": 0.193, "NDRG1 mRNA, set 1": 0.146}
{"gene": "MAD1L1 (mitotic arrest deficient 1 like 1)", "BNIP3L mRNA, set 1": 0.207, "NDRG1 mRNA, set 1": 0.198}
{"gene": "CALM1 (calmodulin 1)", "BNIP3L mRNA, set 1": 0.102, "NDRG1 mRNA, set 1": 0.104}
{"gene": "TP73 (tumor protein p73)", "BNIP3L mRNA, set 1": 0.0606, "NDRG1 mRNA, set 1": 0.0641}
{"gene": "VANGL2 (VANGL planar cell polarity protein 2)", "BNIP3L mRNA, set 1": 0.299, "NDRG1 mRNA, set 1": 0.298}
{"gene": "SSBP1 (single stranded DNA binding protein 1)", "BNIP3L mRNA, set 1": 0.138, "NDRG1 mRNA, set 1": 0.173}
{"gene": "WASHC2A (WASH complex subunit 2A)", "BNIP3L mRNA, set 1": 0.086, "NDRG1 mRNA, set 1": 0.0283}
{"gene": "PHKG1 (phosphorylase kinase catalytic subunit gamma 1)", "BNIP3L mRNA, set 1": 0.0722, "NDRG1 mRNA, set 1": 0.393}
{"gene": "CD9 (CD9 molecule)", "BNIP3L mRNA, set 1": 0.0894, "NDRG1 mRNA, set 1": 0.0716}
{"gene": "CNN2 (calponin 2)", "BNIP3L mRNA, set 1": 0.129, "NDRG1 mRNA, set 1": 0.12}
{"gene": "BDP1 (BDP1 general transcription factor IIIB subunit)", "BNIP3L mRNA, set 1": 0.383, "NDRG1 mRNA, set 1": 0.919}
{"gene": "PSAT1 (phosphoserine aminotransferase 1)", "BNIP3L mRNA, set 1": 0.153, "NDRG1 mRNA, set 1": 0.257}
{"gene": "IRS2 (insulin receptor substrate 2)", "BNIP3L mRNA, set 1": 0.0944, "NDRG1 mRNA, set 1": 0.18}
{"gene": "OR10J1 (olfactory receptor family 10 subfamily J member 1)", "BNIP3L mRNA, set 1": 0.328, "NDRG1 mRNA, set 1": 0.465}
{"gene": "GAR1 (GAR1 ribonucleoprotein)", "BNIP3L mRNA, set 1": 0.138, "NDRG1 mRNA, set 1": 0.151}
